Experimental data: the supplement of paper PMC10849652
Some of the results follow.

Protein sequences, listed by entry. Tags and fused reporters are not part of them. Lines headed by an entry give the natural chain unless they say otherwise; changes in a name come on top.
UniProt Q969S8: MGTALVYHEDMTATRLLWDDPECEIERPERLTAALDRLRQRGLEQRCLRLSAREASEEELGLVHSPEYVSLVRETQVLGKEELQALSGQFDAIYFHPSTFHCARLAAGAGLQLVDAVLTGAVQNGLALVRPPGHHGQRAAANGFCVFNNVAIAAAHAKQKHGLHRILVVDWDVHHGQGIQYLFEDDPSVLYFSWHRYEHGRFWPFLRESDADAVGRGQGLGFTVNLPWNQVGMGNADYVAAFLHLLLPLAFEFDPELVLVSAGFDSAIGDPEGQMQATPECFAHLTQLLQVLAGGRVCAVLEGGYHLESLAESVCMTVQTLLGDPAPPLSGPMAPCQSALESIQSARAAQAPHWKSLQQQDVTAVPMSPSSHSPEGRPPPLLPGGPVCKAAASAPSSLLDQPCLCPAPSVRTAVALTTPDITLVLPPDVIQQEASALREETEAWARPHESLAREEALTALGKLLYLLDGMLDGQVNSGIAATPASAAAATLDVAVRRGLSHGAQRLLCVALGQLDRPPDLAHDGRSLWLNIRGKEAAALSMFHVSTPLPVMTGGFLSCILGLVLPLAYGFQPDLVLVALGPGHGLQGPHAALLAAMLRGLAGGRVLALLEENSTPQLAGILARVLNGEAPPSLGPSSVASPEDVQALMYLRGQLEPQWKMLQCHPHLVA
UniProt P42357: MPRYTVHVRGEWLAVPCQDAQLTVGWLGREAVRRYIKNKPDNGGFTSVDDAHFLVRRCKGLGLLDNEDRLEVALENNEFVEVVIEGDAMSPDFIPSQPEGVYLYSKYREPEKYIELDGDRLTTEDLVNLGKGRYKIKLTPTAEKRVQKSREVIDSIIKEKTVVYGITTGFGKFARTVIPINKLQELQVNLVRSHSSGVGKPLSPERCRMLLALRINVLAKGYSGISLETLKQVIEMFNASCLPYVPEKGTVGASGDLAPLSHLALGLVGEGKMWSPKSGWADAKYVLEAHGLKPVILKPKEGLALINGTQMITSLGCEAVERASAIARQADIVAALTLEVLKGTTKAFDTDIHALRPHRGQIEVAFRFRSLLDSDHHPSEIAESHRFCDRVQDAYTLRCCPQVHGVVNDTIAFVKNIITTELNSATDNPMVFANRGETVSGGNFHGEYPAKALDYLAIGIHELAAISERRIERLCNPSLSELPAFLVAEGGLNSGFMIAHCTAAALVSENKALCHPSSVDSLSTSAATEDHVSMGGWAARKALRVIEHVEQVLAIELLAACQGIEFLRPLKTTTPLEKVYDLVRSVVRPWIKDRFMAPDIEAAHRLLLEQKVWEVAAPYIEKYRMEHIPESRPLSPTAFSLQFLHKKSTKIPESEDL
UniProt Q68CZ6: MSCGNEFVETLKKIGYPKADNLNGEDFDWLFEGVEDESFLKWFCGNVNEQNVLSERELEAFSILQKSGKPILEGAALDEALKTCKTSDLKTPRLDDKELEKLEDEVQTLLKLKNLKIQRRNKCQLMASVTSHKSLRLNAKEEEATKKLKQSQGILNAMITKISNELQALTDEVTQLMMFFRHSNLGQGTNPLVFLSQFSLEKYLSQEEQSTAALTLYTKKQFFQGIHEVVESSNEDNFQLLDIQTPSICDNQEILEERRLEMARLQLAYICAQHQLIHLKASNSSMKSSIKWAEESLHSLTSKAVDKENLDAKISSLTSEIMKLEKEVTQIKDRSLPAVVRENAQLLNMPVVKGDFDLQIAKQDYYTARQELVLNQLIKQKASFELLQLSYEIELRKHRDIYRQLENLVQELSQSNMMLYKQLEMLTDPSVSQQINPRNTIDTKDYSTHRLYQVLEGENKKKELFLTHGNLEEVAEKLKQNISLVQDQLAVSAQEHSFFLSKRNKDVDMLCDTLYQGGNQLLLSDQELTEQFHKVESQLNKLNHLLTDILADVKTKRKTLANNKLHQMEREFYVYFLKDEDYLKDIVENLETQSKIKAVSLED
UniProt P68871: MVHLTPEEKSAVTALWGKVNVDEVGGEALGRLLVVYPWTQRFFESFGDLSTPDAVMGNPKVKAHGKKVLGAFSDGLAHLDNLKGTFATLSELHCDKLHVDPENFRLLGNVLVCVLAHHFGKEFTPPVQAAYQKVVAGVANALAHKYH
UniProt Q9BY41: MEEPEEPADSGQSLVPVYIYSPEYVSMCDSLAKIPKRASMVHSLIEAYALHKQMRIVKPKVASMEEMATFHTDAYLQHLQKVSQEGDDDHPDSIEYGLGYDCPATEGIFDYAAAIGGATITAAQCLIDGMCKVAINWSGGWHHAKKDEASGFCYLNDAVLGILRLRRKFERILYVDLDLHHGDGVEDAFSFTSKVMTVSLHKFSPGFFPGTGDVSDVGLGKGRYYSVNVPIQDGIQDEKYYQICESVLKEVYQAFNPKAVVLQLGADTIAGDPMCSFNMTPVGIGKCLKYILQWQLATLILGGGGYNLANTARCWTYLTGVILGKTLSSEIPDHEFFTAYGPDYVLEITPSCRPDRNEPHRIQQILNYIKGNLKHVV
UniProt Q5JVS0: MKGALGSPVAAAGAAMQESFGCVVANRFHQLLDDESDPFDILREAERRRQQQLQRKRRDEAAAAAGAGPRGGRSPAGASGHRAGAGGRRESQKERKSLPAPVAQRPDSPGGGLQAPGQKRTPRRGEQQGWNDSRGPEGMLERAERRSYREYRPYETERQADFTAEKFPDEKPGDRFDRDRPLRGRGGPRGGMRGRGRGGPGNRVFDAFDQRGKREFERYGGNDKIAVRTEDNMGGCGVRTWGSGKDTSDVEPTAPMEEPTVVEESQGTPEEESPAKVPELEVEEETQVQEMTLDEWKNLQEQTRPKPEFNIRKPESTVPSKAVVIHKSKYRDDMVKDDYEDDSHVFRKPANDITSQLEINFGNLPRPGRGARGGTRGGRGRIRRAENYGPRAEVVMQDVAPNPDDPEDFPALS
UniProt Q9H116: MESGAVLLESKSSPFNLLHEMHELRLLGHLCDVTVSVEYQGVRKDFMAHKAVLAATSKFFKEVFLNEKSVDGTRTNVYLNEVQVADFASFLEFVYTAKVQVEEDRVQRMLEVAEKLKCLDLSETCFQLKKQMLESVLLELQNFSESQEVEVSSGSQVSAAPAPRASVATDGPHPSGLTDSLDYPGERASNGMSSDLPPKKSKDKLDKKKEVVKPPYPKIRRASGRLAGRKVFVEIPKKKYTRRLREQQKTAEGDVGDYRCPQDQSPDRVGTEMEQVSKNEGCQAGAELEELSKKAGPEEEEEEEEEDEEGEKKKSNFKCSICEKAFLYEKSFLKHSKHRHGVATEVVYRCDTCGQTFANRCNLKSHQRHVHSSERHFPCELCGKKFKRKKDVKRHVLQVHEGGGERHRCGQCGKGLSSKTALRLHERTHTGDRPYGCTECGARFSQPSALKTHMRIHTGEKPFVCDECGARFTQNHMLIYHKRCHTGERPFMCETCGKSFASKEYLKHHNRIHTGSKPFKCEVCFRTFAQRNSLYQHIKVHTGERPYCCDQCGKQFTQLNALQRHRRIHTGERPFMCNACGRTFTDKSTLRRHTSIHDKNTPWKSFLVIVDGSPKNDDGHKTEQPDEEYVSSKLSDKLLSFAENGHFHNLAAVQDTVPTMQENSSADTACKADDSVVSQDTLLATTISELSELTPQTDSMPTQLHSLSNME
UniProt Q92759: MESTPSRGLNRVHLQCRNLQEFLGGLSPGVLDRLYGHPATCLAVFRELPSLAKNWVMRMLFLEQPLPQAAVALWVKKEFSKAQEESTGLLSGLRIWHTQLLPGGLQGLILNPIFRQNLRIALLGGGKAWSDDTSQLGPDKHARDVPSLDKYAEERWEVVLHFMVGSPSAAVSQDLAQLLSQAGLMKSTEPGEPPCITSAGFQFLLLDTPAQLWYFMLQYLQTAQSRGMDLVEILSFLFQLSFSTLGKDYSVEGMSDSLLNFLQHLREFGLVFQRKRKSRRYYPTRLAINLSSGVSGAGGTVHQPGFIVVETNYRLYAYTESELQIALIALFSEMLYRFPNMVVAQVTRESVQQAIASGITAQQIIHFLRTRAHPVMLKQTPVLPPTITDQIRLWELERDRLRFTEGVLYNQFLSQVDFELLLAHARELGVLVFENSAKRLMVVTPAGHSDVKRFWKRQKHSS
UniProt Q04756: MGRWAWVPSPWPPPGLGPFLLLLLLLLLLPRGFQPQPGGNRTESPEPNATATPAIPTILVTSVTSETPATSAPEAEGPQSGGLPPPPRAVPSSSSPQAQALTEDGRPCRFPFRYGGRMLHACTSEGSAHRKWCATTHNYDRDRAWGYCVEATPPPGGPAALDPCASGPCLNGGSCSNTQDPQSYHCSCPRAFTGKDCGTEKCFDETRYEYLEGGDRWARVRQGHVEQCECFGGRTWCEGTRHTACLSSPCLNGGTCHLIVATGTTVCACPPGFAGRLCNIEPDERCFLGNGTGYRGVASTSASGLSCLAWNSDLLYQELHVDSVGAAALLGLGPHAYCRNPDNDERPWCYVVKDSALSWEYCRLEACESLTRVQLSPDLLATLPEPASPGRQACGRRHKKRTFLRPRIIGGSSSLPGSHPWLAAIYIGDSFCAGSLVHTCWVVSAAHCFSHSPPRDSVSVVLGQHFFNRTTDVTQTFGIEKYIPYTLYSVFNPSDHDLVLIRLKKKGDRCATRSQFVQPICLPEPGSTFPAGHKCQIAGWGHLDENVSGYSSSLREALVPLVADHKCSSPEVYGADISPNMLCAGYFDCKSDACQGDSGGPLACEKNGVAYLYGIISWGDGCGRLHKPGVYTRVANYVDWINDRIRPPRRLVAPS
UniProt P07305, whole entry, looked up: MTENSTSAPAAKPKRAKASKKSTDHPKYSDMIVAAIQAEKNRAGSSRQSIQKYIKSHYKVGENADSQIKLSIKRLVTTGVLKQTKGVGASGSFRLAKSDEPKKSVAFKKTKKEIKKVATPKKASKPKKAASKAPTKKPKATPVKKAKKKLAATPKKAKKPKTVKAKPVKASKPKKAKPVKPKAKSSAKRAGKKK
UniProt Q14469: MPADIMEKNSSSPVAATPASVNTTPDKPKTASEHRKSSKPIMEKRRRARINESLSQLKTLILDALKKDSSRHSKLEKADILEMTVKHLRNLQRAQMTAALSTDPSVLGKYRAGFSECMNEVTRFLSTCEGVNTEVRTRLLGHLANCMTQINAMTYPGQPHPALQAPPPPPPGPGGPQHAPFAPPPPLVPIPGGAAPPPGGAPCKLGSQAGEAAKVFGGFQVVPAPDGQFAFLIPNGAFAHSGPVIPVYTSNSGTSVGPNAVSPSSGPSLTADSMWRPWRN
UniProt P14210, whole entry, looked up: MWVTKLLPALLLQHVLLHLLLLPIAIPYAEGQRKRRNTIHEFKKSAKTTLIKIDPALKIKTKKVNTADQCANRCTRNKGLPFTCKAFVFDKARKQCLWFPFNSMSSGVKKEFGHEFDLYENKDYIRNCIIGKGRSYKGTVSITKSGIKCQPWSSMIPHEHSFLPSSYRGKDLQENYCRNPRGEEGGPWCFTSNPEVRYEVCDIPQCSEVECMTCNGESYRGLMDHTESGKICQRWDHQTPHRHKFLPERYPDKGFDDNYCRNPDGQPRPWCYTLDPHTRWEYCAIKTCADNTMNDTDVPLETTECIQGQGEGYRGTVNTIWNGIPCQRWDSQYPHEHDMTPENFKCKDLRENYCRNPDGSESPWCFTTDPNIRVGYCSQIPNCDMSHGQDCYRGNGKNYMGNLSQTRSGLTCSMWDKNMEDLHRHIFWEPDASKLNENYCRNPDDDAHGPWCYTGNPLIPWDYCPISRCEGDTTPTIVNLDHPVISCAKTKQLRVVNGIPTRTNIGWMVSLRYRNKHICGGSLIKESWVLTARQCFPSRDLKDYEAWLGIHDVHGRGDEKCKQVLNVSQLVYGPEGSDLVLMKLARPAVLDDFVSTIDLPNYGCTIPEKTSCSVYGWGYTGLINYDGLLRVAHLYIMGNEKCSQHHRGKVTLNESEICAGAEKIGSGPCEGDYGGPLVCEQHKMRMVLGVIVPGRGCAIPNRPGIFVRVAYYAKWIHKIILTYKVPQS
UniProt Q9P0R6: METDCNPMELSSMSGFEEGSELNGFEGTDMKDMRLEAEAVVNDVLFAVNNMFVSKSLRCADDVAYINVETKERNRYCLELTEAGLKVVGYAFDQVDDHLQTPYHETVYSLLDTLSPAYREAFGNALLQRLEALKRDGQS
UniProt P32780: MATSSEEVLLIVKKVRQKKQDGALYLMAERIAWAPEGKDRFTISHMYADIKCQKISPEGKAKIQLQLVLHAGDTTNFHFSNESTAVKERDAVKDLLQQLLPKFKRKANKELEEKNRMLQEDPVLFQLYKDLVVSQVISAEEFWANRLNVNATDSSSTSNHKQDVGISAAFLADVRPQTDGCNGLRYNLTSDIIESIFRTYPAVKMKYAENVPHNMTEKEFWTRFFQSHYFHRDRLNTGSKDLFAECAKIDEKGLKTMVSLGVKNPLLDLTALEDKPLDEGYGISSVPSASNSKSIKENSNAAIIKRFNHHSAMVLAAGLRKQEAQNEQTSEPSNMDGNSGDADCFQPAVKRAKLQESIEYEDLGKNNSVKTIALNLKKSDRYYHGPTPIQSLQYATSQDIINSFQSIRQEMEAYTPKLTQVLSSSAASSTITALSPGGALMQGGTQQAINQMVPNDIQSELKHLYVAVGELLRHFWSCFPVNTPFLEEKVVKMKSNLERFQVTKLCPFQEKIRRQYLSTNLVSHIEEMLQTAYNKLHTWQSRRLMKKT

What was measured:
Experiment in all cases: log2 fold change, soluble protein after heating vs DMSO (PISA); higher = thermal stabilisation; K562 cells, 10 uM, 30 min; active = over 0.2 and 3.5 SD of the protein, either way, in both replicates (recomputed)
[1] = compound: C[C@H](C1=CC=C(C=C1)C(=O)NC2=C3C=CNC3=NC=C2)N
Summary of the method: (§1)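 Soluble protein was quantified by TMTpro 16plex LC-MS/MS after channel sums were equalised. It was obtained as the supernatant after 21,000xg for 90 min from pooled aliquots of K562 cells (2×10^6 cells/mL, 10 μM compound, 30 min) heated for 3 min across 48°C-58°C and extracted in PBS with 0.5% NP-40 at 4°C. Thermal stability values are relative to control samples and come from duplicates. They are given as log2 fold changes.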

[2] = compound: Cc1cc(Nc2cc(CN3CCOCC3)c3nc(C)c(Cc4ccc(Cl)cc4F)n3n2)n[nH]1 [gandotinib]
Summary of the method: as §1

[3] = compound: Cc1cc(SCc2sc(-c3ccc(C(F)(F)F)cc3)nc2C)ccc1OCC(=O)O
Summary of the method: as §1

[4] = compound: Cc1ccc(C(=O)N(CCCN)[C@@H](c2nc3cc(Cl)ccc3c(=O)n2Cc2ccccc2)C(C)C)cc1 [ispinesib]
Summary of the method: as §1

[5] = compound: Cc1ccc(NC(=O)c2ccc(CN3CC[C@H](N(C)C)C3)c(C(F)(F)F)c2)cc1Nc1nccc(-c2cncnc2)n1 [bafetinib]
Summary of the method: as §1

[6] = compound: Cc1cccc(CC(=O)N2CCc3c2ccc(-c2cn(C)c4ncnc(N)c24)c3F)n1
Summary of the method: as §1

[7] = compound: Cc1cn(-c2cc(NC(=O)c3ccc(C)c(Nc4nccc(-c5cccnc5)n4)c3)cc(C(F)(F)F)c2)cn1 [nilotinib]
Summary of the method: as §1

[8] = compound: Cc1nc(Nc2n[nH]c3c2CN(C(=O)N[C@H](CN(C)C)c2ccccc2)C3(C)C)c2sccc2n1
Summary of the method: as §1

[9] = compound: Cc1nc(Nc2ncc(C(=O)Nc3c(C)cccc3Cl)s2)cc(N2CCN(CCO)CC2)n1 [dasatinib]
Summary of the method: as §1

[10] = compound: Cc1ncc(-c2ccnc(Nc3ccc(S(C)(=O)=O)cc3)n2)n1C(C)C
Summary of the method: as §1

[11] = compound: Cn1cc(-c2ccc3c(c2)CCN3C(=O)Cc2cccc(C(F)(F)F)c2)c2c(N)ncnc21
Summary of the method: as §1

[12] = compound: Cn1cc(-c2ccc3nnc(C(F)(F)c4ccc5ncccc5c4)n3n2)cn1
Summary of the method: as §1

[13] = compound: Cn1cncc1[C@@](N)(c1ccc(Cl)cc1)c1ccc2c(c1)c(-c1cccc(Cl)c1)cc(=O)n2C [tipifarnib]
Summary of the method: as §1

[14] = compound: FC(F)(F)c1ccc(/C=C/c2nc(COc3ccc(CCCCn4ccnn4)cc3)co2)cc1 [mubritinib]
Summary of the method: as §1

[15] = compound: CS(=O)(=O)c1ccc(-c2cnc(N)c(C(=O)Nc3ccccc3)n2)cc1
Summary of the method: as §1

[16] = compound: C[C@@H]1COCCN1C2=NC(=NC(=C2)C3(CC3)S(=O)(=O)C)C4=C5C=CNC5=CC=C4
Summary of the method: as §1

[17] = compound: C[C@H](Nc1ncnc2nc[nH]c12)c1cc2cccc(Cl)c2c(=O)n1-c1ccccc1 [duvelisib]
Summary of the method: as §1

[18] = compound: Cc1cc(Nc2cc(N3CCN(C)CC3)nc(Sc3ccc(NC(=O)C4CC4)cc3)n2)n[nH]1 [tozasertib]
Summary of the method: as §1

[19] = compound: C[C@@H](Oc1cc(-c2cnn(C3CCNCC3)c2)cnc1N)c1c(Cl)ccc(F)c1Cl [crizotinib]
Summary of the method: as §1

[20] = compound: Cc1ccc(-n2nc(C(C)(C)C)cc2NC(=O)Nc2ccc(OCCN3CCOCC3)c3ccccc23)cc1 [doramapimod]
Summary of the method: as §1

Measured: log2 fold change

HDAC10 (UniProt Q969S8)
inactive: [1] -0.045 | [2] 0.008 | [3] 0.042 | [4] 0.065 | [5] -0.255 | [6] -0.073 | [7] -0.118 | [8] -0.075 | [9] -0.027 | [10] -0.08 | [11] 0.071 | [12] 0.001 | [13] 0.046 | [14] 0.116

HAL (UniProt P42357)
inactive: [15] -0.138 | [16] 0.122 | [1] -0.074 | [17] -0.168 | [18] 0.219 | [3] -1.11 | [7] 0.776 | [8] -0.112 | [9] -0.867 | [10] 0.455 | [11] 0.528 | [13] -0.098 | [14] -0.436

HAUS3 (UniProt Q68CZ6)
inactive: [19] -0.073 | [16] -0.162 | [1] 0.207 | [17] 0.103 | [18] 0.029 | [3] 0.122 | [20] 0.183 | [4] -0.208 | [9] -0.27 | [11] -0.257 | [12] -0.109 | [13] 0.013 | [14] 0.028

HBB (UniProt P68871)
inactive: [14] -0.044

GSPT1 isoform 2 (UniProt P15170)
inactive: [7] 0.007 | [8] 0.196 | [10] -0.027

HEXD isoform 2 (UniProt Q8WVB3)
inactive: [15] 0.076 | [16] -0.16 | [17] 0.572 | [2] -0.038 | [3] 0.239 | [6] -0.103 | [9] -0.062 | [13] 0.107

HERPUD2 (UniProt Q9BSE4)
inactive: [19] -0.075 | [1] -0.048 | [17] 0.046 | [3] 0.05 | [20] 0.107 | [4] 0.097 | [5] -0.04 | [9] -0.269 | [11] 0.122 | [12] -0.111

GSTA1 (UniProt P08263)
inactive: [15] 0.008 | [16] 0.029 | [18] -0.077 | [5] -0.229 | [7] 0.236 | [8] -0.152 | [10] -0.024

HDAC8 (UniProt Q9BY41)
inactive: [16] -0.162

GTF3C3 (UniProt Q9Y5Q9)
inactive: [19] 0.265 | [17] -0.538 | [2] -0.067 | [18] -0.407 | [3] 0.239 | [20] 0.065 | [5] -0.04 | [6] 0.044 | [7] 0.099 | [8] -0.071 | [9] 0.09 | [10] -0.316 | [13] -0.162 | [14] 0.169

HABP4 (UniProt Q5JVS0)
inactive: [16] -0.021 | [4] 0.123 | [5] -0.267 | [12] 0.085

GZF1 (UniProt Q9H116)
inactive: [15] 0.154 | [17] -0.132 | [3] 0.063 | [9] 0.143

HERPUD1 (UniProt Q15011)
inactive: [18] 0.016 | [13] 0.086 | [14] -0.07

HAUS4 (UniProt Q9H6D7)
inactive: [15] 0.068 | [16] 0.024 | [1] 0.139 | [2] 0.015 | [3] -0.195 | [4] -0.259 | [5] -0.069 | [6] 0.023 | [7] 0.08 | [8] 0.086 | [9] 0.178 | [10] 0.567 | [11] -0.045 | [12] -0.051 | [13] -0.115 | [14] -0.547

HACE1 (UniProt Q8IYU2)
inactive: [18] -0.083

GTF2H4 (UniProt Q92759)
inactive: [15] 0.019 | [16] 0.018 | [1] 0.011 | [17] 0.009 | [2] 0.167 | [18] -0.087 | [3] 0.047 | [6] -0.008 | [7] -0.027 | [8] -0.137 | [9] -0.061 | [10] -0.002 | [11] -0.092 | [13] 0.184 | [14] 0.021

Copied from the results shown (6 entries):
HDAC8 (UniProt Q9BY41)
inactive: [16] -0.162

GTF3C3 (UniProt Q9Y5Q9)
inactive: [19] 0.265 | [17] -0.538 | [2] -0.067 | [18] -0.407 | [3] 0.239 | [20] 0.065 | [5] -0.04 | [6] 0.044 | [7] 0.099 | [8] -0.071 | [9] 0.09 | [10] -0.316 | [13] -0.162 | [14] 0.169

HABP4 (UniProt Q5JVS0)
inactive: [16] -0.021 | [4] 0.123 | [5] -0.267 | [12] 0.085

GZF1 (UniProt Q9H116)
inactive: [15] 0.154 | [17] -0.132 | [3] 0.063 | [9] 0.143

HERPUD1 (UniProt Q15011)
inactive: [18] 0.016 | [13] 0.086 | [14] -0.07

HAUS4 (UniProt Q9H6D7)
inactive: [15] 0.068 | [16] 0.024 | [1] 0.139 | [2] 0.015 | [3] -0.195 | [4] -0.259 | [5] -0.069 | [6] 0.023 | [7] 0.08 | [8] 0.086 | [9] 0.178 | [10] 0.567 | [11] -0.045 | [12] -0.051 | [13] -0.115 | [14] -0.547

(next part)

HGFAC (UniProt Q04756)
inactive: [19] 0.181 | [16] -0.037 | [17] -0.329 | [18] -0.02 | [3] -0.161 | [20] 0.129 | [5] -0.139 | [7] 0.178 | [8] 0.276 | [9] 0.038 | [10] 0.224 | [13] 0.034 | [14] -0.434

HBZ, A0A494C057
inactive: [5] -0.015 | [7] 0.171 | [8] -0.035 | [10] 0.127 | [14] -0.08

H1-0 (UniProt P07305)
inactive: [17] 0.3 | [3] 0.161 | [9] 0.298

HES1 (UniProt Q14469)
inactive: [19] 0.16 | [1] -0.047 | [17] 0.026 | [2] -0.256 | [18] 0.227 | [3] 0.017 | [20] -0.069 | [6] 0.07 | [9] -0.05 | [11] -0.007 | [14] 0.27

HGF (UniProt P14210)
inactive: [15] 0.06 | [16] 0.067 | [1] 0.124 | [17] -0.313 | [18] 0.028 | [3] -0.18 | [5] -0.161 | [7] 0.047 | [8] -0.038 | [9] 0.262 | [10] -0.156 | [11] 0.142 | [14] -0.155

GXYLT1 (UniProt Q4G148)
inactive: [19] -0.016 | [16] 0.191 | [1] -0.129 | [17] 0.196 | [2] 0.07 | [18] -0.004 | [3] -0.242 | [20] 0.073 | [4] -0.016 | [5] -0.276 | [6] 0.125 | [7] 0.081 | [8] -0.053 | [9] 0.15 | [10] -0.004 | [11] -0.096 | [12] 0.082 | [13] 0.012 | [14] 0.014

HECTD4 (UniProt Q9Y4D8)
inactive: [19] -0.029 | [20] 0.146 | [14] 0.041

GSKIP (UniProt Q9P0R6)
inactive: [19] 0.194 | [1] -0.04 | [17] 0.163 | [2] 0.416 | [18] 0.125 | [3] 0.036 | [20] 0.035 | [4] 0.176 | [5] 0.01 | [6] -0.081 | [7] 0 | [8] 0.257 | [9] -0.041 | [10] 0.23 | [11] 0.146 | [12] 0.177 | [13] 0.022 | [14] 0

HBD (UniProt E9PEW8)
inactive: [2] -0.286 | [6] -0.006 | [7] -0.063 | [8] 0.065 | [10] -0.012 | [14] -0.242

GYG2 (UniProt O15488)
inactive: [14] 0.194

HELLS (UniProt Q9NRZ9)
inactive: [16] -0.2 | [2] -0.086 | [5] -0.201 | [6] -0.04

GTF2H1 (UniProt P32780)
inactive: [19] -0.014 | [1] 0.248 | [2] 0.055 | [20] 0.089 | [4] -0.119 | [6] -0.191 | [11] -0.036 | [12] -0.07 | [14] -0.135

HAUS7 isoform 2 (UniProt Q99871)
inactive: [4] 0.373 | [12] 0.013

GSTT1 (UniProt P30711)
active: [19] 0.332
inactive: [16] 0.19 | [1] 0.002 | [2] 0.19 | [3] -0.061 | [20] -0.003 | [4] 0.026 | [5] -0.019 | [6] -0.144 | [7] 0.056 | [8] -0.019 | [9] 0.143 | [10] -0.033 | [11] 0.014 | [12] 0.043 | [13] -0.065 | [14] 0.012

HEXIM2 (UniProt Q96MH2)
inactive: [19] 0.007 | [16] -0.141 | [2] -0.009 | [20] 0.039 | [6] 0.021

HACD2 (UniProt Q6Y1H2)
inactive: [1] 0.288 | [18] -0.017 | [11] 0.245 | [13] -0.005 | [14] -0.039

HDAC5 isoform 3 (UniProt Q9UQL6)
inactive: [15] 0.006 | [16] -0.052 | [1] -0.126 | [17] 0.081 | [2] 0.018 | [18] -0.194 | [3] 0.089 | [5] -0.098 | [6] 0.201 | [7] 0.08 | [8] -0.093 | [9] 0.055 | [10] 0.034 | [11] 0.14 | [14] 0.164
